This is one part of the list.

Amino acid sequences for entries named in this document (tags omitted). A change or cut given only in a name is not applied to a line headed by its entry.
UniProt P15907: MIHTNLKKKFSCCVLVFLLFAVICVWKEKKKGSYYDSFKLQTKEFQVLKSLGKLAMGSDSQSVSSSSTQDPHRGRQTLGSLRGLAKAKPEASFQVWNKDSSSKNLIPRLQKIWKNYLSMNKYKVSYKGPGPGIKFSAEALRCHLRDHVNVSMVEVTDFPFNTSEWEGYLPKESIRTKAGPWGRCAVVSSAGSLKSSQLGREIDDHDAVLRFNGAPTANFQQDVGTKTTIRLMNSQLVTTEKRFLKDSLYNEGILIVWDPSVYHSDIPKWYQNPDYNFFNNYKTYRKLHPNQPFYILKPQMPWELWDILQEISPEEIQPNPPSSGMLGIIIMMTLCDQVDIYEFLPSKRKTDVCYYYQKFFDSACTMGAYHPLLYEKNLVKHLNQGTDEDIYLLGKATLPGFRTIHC
UniProt Q9UQ90: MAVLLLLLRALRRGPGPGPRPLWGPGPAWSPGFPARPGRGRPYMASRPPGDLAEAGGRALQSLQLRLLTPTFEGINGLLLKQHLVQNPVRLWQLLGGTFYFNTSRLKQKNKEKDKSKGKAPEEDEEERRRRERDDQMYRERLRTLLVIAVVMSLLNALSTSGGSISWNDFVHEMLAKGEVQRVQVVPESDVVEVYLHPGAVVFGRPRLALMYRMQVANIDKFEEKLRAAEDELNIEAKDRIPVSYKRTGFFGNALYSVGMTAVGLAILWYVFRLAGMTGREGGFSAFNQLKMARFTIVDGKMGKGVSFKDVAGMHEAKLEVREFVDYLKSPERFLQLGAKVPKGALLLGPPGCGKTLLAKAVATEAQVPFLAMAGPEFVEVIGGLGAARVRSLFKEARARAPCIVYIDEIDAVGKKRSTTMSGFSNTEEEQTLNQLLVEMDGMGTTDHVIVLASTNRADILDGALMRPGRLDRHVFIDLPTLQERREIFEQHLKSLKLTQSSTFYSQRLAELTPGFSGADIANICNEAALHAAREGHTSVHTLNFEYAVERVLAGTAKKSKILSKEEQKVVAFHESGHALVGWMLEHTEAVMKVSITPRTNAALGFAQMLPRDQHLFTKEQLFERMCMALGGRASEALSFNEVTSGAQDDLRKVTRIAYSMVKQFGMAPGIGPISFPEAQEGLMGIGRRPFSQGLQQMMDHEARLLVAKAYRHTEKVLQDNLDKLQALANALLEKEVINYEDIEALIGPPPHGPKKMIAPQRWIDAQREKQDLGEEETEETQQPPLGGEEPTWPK
UniProt O15400: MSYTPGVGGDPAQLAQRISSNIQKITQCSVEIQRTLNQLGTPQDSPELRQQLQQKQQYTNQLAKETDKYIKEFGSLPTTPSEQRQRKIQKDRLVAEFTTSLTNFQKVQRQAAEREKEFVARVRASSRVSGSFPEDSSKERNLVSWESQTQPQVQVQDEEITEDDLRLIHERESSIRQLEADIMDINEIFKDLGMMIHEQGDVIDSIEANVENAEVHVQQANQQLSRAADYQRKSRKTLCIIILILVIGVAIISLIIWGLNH
UniProt O15056: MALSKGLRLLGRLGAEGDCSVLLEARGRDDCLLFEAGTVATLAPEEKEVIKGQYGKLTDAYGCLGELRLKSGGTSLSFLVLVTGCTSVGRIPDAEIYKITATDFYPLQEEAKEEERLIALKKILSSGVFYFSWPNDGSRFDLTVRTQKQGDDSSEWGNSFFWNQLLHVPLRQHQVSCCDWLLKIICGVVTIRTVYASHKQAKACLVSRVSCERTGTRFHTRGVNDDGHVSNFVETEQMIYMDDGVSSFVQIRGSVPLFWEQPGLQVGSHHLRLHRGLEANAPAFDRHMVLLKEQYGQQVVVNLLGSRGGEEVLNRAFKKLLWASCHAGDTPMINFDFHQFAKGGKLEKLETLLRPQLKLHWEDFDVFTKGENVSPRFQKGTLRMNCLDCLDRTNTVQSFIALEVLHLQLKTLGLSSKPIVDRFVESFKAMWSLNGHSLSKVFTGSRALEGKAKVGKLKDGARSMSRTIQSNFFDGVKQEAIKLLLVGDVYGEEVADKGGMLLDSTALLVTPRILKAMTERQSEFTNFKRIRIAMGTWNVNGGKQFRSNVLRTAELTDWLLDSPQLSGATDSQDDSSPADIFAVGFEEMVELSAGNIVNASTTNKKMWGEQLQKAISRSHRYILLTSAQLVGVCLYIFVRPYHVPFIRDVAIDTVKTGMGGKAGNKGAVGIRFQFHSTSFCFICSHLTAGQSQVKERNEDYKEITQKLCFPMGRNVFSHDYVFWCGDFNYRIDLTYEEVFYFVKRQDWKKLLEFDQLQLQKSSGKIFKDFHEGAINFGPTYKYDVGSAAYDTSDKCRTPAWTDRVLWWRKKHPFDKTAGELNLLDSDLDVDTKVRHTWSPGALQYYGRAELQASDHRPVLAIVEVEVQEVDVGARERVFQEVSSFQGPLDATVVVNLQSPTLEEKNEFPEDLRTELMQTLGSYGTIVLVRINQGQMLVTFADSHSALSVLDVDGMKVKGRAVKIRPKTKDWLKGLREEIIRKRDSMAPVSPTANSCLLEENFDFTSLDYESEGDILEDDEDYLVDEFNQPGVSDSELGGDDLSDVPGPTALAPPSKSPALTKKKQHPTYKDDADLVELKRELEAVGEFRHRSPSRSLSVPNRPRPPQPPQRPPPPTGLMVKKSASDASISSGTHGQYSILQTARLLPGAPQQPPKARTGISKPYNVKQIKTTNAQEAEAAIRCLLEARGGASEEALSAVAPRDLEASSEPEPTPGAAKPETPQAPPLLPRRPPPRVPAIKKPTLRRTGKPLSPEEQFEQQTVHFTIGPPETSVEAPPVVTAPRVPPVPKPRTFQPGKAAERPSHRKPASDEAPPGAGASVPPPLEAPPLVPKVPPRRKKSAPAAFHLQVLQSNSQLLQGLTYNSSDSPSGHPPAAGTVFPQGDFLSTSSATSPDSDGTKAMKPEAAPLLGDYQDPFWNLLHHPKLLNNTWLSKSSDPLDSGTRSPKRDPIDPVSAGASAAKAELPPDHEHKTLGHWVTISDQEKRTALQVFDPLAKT
UniProt Q14186: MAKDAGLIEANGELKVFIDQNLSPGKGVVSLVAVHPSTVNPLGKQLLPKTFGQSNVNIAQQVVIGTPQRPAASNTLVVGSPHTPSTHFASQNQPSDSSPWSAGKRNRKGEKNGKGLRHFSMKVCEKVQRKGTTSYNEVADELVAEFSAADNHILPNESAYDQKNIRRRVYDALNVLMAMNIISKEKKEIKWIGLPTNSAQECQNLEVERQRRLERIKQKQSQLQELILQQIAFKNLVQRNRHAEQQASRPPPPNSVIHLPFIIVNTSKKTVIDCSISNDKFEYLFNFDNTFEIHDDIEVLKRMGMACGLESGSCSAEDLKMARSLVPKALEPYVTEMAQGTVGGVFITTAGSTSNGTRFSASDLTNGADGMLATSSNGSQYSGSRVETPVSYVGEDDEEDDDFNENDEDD
UniProt P10124: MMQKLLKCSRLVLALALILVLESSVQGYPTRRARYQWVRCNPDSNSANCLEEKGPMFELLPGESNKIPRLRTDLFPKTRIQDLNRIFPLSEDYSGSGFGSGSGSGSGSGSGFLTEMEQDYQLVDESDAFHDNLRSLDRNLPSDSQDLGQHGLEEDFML
UniProt Q12846: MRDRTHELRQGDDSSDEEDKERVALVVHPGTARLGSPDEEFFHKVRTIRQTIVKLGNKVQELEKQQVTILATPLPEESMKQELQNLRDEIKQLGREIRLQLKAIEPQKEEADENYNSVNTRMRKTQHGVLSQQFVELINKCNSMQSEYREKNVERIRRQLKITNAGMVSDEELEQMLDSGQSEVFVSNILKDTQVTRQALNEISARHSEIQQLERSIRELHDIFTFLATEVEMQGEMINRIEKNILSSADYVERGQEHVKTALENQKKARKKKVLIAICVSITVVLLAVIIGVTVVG
UniProt Q9H7L9: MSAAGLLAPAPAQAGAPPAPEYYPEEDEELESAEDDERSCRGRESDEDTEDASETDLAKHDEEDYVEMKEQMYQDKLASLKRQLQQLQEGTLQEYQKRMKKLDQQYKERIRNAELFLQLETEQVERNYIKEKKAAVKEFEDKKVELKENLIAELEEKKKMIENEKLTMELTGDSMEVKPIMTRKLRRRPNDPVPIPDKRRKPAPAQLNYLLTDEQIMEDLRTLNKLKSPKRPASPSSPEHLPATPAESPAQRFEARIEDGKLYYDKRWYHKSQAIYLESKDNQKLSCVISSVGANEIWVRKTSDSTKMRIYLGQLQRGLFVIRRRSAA
UniProt Q6P1N9: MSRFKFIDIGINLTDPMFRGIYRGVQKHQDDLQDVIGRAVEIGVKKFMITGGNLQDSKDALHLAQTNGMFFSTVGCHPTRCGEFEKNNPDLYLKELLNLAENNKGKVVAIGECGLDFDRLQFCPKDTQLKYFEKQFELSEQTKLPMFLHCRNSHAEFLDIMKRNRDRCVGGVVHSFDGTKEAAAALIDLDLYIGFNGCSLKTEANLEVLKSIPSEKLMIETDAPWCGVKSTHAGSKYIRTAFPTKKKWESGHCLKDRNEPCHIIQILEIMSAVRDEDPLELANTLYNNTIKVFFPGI
UniProt O95630, whole entry: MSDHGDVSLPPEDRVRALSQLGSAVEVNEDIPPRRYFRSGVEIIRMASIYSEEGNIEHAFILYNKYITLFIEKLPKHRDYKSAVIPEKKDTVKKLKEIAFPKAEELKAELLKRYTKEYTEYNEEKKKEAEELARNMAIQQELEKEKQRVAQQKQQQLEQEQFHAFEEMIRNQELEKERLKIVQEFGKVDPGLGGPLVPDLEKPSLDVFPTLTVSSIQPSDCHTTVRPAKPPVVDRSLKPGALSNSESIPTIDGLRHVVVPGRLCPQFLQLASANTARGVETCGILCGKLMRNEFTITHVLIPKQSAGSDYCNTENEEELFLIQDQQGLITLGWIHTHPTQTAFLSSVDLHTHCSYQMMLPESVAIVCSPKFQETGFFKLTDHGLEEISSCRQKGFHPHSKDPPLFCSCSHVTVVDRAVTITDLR
UniProt Q9BWW4: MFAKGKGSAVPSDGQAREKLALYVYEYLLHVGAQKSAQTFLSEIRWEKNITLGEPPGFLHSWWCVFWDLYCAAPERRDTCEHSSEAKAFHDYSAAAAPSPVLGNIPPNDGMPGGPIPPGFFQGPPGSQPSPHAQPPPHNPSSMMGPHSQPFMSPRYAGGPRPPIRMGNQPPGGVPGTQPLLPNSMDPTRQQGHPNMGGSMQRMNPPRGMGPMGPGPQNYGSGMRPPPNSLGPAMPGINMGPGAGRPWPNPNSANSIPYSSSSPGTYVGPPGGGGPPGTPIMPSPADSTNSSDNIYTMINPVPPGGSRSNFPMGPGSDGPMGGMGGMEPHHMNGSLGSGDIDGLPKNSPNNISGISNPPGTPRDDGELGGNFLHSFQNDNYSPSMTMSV
UniProt Q9NVG8: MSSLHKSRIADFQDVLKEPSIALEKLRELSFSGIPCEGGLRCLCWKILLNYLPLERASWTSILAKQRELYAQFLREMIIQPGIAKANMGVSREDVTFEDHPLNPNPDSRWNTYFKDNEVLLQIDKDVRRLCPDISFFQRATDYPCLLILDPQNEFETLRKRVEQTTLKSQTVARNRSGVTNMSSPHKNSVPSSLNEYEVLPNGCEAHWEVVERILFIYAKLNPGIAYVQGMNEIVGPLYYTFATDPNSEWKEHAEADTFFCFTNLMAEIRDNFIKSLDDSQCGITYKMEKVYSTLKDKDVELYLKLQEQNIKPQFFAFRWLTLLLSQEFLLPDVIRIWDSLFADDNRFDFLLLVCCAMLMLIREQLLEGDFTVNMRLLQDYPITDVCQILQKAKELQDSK
UniProt Q86VP1, whole entry: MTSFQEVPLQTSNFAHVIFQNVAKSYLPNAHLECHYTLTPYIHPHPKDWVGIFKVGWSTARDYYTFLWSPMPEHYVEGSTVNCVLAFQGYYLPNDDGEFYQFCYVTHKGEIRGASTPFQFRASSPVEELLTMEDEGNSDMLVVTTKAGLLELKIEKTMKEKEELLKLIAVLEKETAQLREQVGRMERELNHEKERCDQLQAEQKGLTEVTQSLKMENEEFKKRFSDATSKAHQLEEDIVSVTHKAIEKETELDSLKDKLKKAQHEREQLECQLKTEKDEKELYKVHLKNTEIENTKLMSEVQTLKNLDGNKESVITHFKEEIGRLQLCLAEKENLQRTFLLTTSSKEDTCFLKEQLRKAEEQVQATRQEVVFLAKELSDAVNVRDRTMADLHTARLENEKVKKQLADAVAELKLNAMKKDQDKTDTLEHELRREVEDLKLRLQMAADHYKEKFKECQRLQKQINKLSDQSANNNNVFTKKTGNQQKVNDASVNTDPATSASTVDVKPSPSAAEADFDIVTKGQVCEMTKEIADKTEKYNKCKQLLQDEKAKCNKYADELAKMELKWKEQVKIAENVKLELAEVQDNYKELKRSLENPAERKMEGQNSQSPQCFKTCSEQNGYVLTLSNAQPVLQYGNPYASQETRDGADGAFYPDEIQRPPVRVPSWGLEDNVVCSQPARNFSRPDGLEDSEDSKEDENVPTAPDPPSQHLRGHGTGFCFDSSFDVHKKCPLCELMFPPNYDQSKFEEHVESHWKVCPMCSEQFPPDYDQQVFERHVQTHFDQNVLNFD

Compound in this test: COc1ccc(Cn2ccc3cc(C)c(C(=O)NO)cc32)cc1
Description: dose-dependent thermal stabilisation call (2D-TPP, DLPTP, 10% FDR) (binary (1 = stabilised)); higher = stabilised by the compound. Particulars: system: HL-60 intact cells; concentration range 0.04-10 µM. The procedure: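 2D thermal proteome profiling in intact HL-60 cells treated with BRD-3811 (0, 0.04, 0.29, 2, 10 uM) for 90 min at 37 C, then heated 3 min at one of 12 temperatures (42-63.9 C). Soluble protein was quantified by TMT10 MS. The value is the DLPTP call of the paper: dose-dependent thermal stabilisation over all temperatures at 10% FDR (F-test of a dose-response against a flat model); one experiment, one call per tested protein.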
In the case of TERF2IP (UniProt Q9NYB0), the “dose-dependent thermal stabilisation call” value is inactive: 0.

For the target SRPR (UniProt P08240), the “dose-dependent thermal stabilisation call” value was active: 1.

In the case of TAOK1 (UniProt Q7L7X3), the “dose-dependent thermal stabilisation call” value was inactive: 0.

Consider ST6GAL1 (UniProt P15907), for which the “dose-dependent thermal stabilisation call” value is inactive: 0.

As to TFB2M (UniProt Q9H5Q4), the “dose-dependent thermal stabilisation call” value was inactive: 0.

As for SPG7 (UniProt Q9UQ90), the “dose-dependent thermal stabilisation call” value is inactive: 0.

Take TFB1M (UniProt Q8WVM0): the “dose-dependent thermal stabilisation call” value is inactive: 0.

For STX7 (UniProt O15400), the “dose-dependent thermal stabilisation call” value was inactive: 0.

Turning to ST14 (UniProt Q9Y5Y6), the “dose-dependent thermal stabilisation call” value was inactive: 0.

For SYNJ2 (UniProt O15056), the “dose-dependent thermal stabilisation call” value was inactive: 0.

Consider TACC3 (UniProt Q9Y6A5), for which the “dose-dependent thermal stabilisation call” value is inactive: 0.

Take SREBF2 (UniProt Q12772): the “dose-dependent thermal stabilisation call” value was inactive: 0.

For the target TAF15 (UniProt Q92804), the “dose-dependent thermal stabilisation call” value was inactive: 0.

In the case of SUB1 (UniProt P53999), the “dose-dependent thermal stabilisation call” value was inactive: 0.

Take SRFBP1 (UniProt Q8NEF9): the “dose-dependent thermal stabilisation call” value was inactive: 0.

With TFDP1 (UniProt Q14186), the “dose-dependent thermal stabilisation call” value is inactive: 0.

On to STXBP2 (UniProt Q15833), for which the “dose-dependent thermal stabilisation call” value is inactive: 0.

As for SRGN (UniProt P10124), the “dose-dependent thermal stabilisation call” value is inactive: 0.

STBD1 (UniProt O95210): the “dose-dependent thermal stabilisation call” value is inactive: 0.

With TDP1 (UniProt Q9NUW8), the “dose-dependent thermal stabilisation call” value is inactive: 0.

SUPT16H (UniProt Q9Y5B9): the “dose-dependent thermal stabilisation call” value was inactive: 0.

Consider SOLH (UniProt O75808), for which the “dose-dependent thermal stabilisation call” value is inactive: 0.

Turning to STX4 (UniProt Q12846), the “dose-dependent thermal stabilisation call” value is inactive: 0.

Regarding SUDS3 (UniProt Q9H7L9), the “dose-dependent thermal stabilisation call” value is inactive: 0.

For SRPK2 (UniProt P78362), the “dose-dependent thermal stabilisation call” value was inactive: 0.

As for TAP2 (UniProt Q03519), the “dose-dependent thermal stabilisation call” value was inactive: 0.

For the target STK38 (UniProt Q15208), the “dose-dependent thermal stabilisation call” value is inactive: 0.

Consider TASP1 (UniProt Q9H6P5), for which the “dose-dependent thermal stabilisation call” value was inactive: 0.

For TATDN1 (UniProt Q6P1N9), the “dose-dependent thermal stabilisation call” value is inactive: 0.

As to SPRYD3 (UniProt Q8NCJ5), the “dose-dependent thermal stabilisation call” value is inactive: 0.

For the target STAMBP (UniProt O95630), the “dose-dependent thermal stabilisation call” value was inactive: 0.

Consider ST3GAL6 (UniProt Q9Y274), for which the “dose-dependent thermal stabilisation call” value is inactive: 0.

Regarding SSBP3 (UniProt Q9BWW4), the “dose-dependent thermal stabilisation call” value was inactive: 0.

For TBC1D13 (UniProt Q9NVG8), the “dose-dependent thermal stabilisation call” value is inactive: 0.

On to SRGAP2 (UniProt O75044), for which the “dose-dependent thermal stabilisation call” value is inactive: 0.

As to TAX1BP1 (UniProt Q86VP1), the “dose-dependent thermal stabilisation call” value is inactive: 0.

The values above are taken from the supplement of paper PMC7666118.
